Some results were stated once for a whole list of compounds, not compound by compound.
biological target: T1, human cloned 5-HT6 receptors (Homo sapiens, UniProt P50406); experiment: affinity for the 5-HT6 receptor (procedures of WO98/27081); assay type: binding
T1 construct: expressed in transfected cells

Amino acid sequences for entries named in this document (tags omitted).
UniProt P50406, whole entry: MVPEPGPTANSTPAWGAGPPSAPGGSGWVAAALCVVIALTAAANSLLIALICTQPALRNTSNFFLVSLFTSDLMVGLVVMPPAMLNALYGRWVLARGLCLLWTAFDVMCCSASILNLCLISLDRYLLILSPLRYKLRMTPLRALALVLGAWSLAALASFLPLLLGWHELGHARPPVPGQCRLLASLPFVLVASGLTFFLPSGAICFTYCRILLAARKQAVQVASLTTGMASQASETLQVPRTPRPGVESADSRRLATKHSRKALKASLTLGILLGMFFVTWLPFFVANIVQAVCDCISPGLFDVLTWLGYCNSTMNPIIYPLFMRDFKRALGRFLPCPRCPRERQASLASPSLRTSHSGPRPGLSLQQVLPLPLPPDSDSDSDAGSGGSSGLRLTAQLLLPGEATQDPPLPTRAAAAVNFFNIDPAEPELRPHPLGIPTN

pKi values at human cloned 5-HT6 receptors, > 8.0:
Cc1c(S(=O)(=O)c2ccccc2)c2cccc(N3CCNCC3)c2n1C.Cl [Example E18, 1,2-Dimethyl-3-phenylsulfonyl-7-piperazin-1-yl-1H-indole, hydrochloride]
Cn1cc(S(=O)(=O)c2ccccc2C(F)(F)F)c2cccc(N3CCNCC3)c21 [Example E9, 3-(2-Trifluoromethylphenyl)sulfonyl-1-methyl-7-piperazin-1-yl-1H-indole]
CN1CCN(c2cc(Cl)cc3c(S(=O)(=O)c4cccc(Cl)c4)c[nH]c23)CC1 [Example E25, 5-Chloro-3-(3-chlorophenyl)sulfonyl-7-(4-methyl-piperazin-1-yl)-1H-indole]
Cn1cc(S(=O)(=O)c2ccccc2C#N)c2cccc(N3CCNCC3)c21 [Example E7, 3-(2-Cyanophenyl)sulfonyl-1-methyl-7-piperazin-1-yl-1H-indole]
Cn1cc(S(=O)(=O)c2ccccc2Cl)c2cccc(N3CCNCC3)c21 [Example E6, 3-(2 Chlorophenyl)sulfonyl-1-methyl-7-piperazin-1-yl-1H-indole]
Cn1cc(S(=O)(=O)c2ccccc2)c2cccc(N3CCNCC3)c21 [Example E4, 3-(Phenyl)sulfonyl-1-methyl-7-piperazin-1-yl-1H-indole]
O=S(=O)(c1cccc(Cl)c1)c1c[nH]c2c(N3CCNCC3)cc(Cl)cc12 [Example E26, 5-Chloro-3-(3-chlorophenyl)sulfonyl-7-piperazin-1-yl-1H-indole]
CN1CCN(c2cccc3c(S(=O)(=O)c4ccccc4)coc23)CC1.O=C(O)C(F)(F)F [Example E19, 4-Methyl-1-(3-phenylsulfonyl-benzo[b]furan-7-yl)piperazine trifluoroacetate]
O=S(=O)(c1ccc(F)cc1)c1c[nH]c2c(N3CCNCC3)cccc12 [Example E13, 3-(4-Fluorophenyl)sulfonyl-7-piperazin-1-yl-1H-indole]
Cn1cc(S(=O)(=O)c2cccc(F)c2)c2cccc(N3CCNCC3)c21 [Example E8, 3-(3-Fluorophenyl)sulfonyl-1-methyl-7-piperazin-1-yl-1H-indole]
O=S(=O)(c1cccc(F)c1)c1c[nH]c2c(N3CCNCC3)cccc12 [Example E14, 3-(3-Fluorophenyl)sulfonyl-7-piperazin-1-yl-1H-indole]
O=S(=O)(c1c[nH]c2c(N3CCNCC3)cccc12)n1ccc2ccccc21 [Example E2, 3-(1H-Indole-1-sulfonyl)-7-piperazin-1-yl-1H-indole]
O=S(=O)(c1ccccc1F)c1c[nH]c2c(N3CCNCC3)cccc12 [Example E12, 3-(2-Fluorophenyl)sulfonyl-7-piperazin-1-yl-1H-indole]
Cl.Cn1cc(S(=O)(=O)c2cccc(Cl)c2)c2cccc(N3CCNCC3)c21 [Example E3, 3-(3-Chlorophenyl)sulfonyl-1-methyl-7-piperazin-1-yl-1H-indole hydrochloride]
O=S(=O)(c1cccc(Cl)c1)c1c[nH]c2c(N3CCNCC3)cccc12 [Example E11, 3-(3-Chlorophenyl)sulfonyl-7-piperazin-1-yl-1H-indole]
Cn1cc(S(=O)(=O)c2ccccc2F)c2cccc(N3CCNCC3)c21 [Example E5, 3-(2-Fluorophenyl)sulfonyl-1-methyl-7-piperazin-1-yl-1H-indole]
O=S(=O)(c1ccccc1Cl)c1c[nH]c2c(N3CCNCC3)cccc12 [Example E16, 3-(2-Chlorophenyl)sulfonyl-7-piperazin-1-yl-1H-indole]
CN1CCN(c2cccc3c(S(=O)(=O)n4ccc5ccccc54)c[nH]c23)CC1 [Example E1, 3-(1H-Indole-1-sulfonyl)-7-(4-methyl-piperazin-1-yl)-1H-indole]
N#Cc1ccccc1S(=O)(=O)c1c[nH]c2c(N3CCNCC3)cccc12 [Example E17, 3-(2-Cyanophenyl)sulfonyl-7-piperazin-1-yl-1H-indole]
